# Results taken from the supplement of paper PMC10338343.
# ± gives the standard deviation. The list shows a part of the results, in another mix than the full data. The uncertainty is large for many entries. The list shows a part of the results.
# What was measured:
# [1] = system: MILI (PIWIL2) piRISC loaded with L1MC piRNA (26 nt); assay: pre-steady-state target cleavage rate (min^-1); higher = faster piRNA-guided slicing of the target; conditions: guide: L1MC piRNA 5'p-UAACUAAAUACUAUGCAAGCUGUAGG;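 also: 1 nM active piRISC with 0.1 nM target library at 33 °C single turnover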
# Outline: (§1)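 Active affinity-purified piRISC carrying one synthetic guide (1 nM) was mixed with a transcribed, DNA-blocked target RNA library […] in HEPES–potassium acetate buffer at 33 °C for 0–8 or 0–960 min, with or without 500 nM GTSF1 partner protein. Uncleaved targets were then sequenced and normalised to depth and to weakly complementary targets. Three trials were pooled, and k3 was capped at 0.0001 min^-1. A burst-and-steady-state fit was applied to obtain the pre-steady-state cleavage rate.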
# [2] = system: EfPiwi piRISC loaded with L1MC piRNA (26 nt); assay: pre-steady-state target cleavage rate (min^-1); guide: L1MC piRNA 5'p-UAACUAAAUACUAUGCAAGCUGUAGG; MIWI and MILI are mouse PIWI proteins and EfPiwi is from a freshwater sponge; tags in brackets are library labels; higher = faster piRNA-guided slicing of the target
# Outline: as §1
# [3] = auxiliary factor: 500 nM mouse GTSF1
# [4] = auxiliary factor: 500 nM Ephydatia muelleri Gtsf1
# [5] = auxiliary factor: none (no GTSF1)
# [6] = auxiliary factor: none (no Gtsf1)
Sequence,"pre-steady-state target cleavage rate [1, 3]","pre-steady-state target cleavage rate [2, 4]","pre-steady-state target cleavage rate [1, 5]","pre-steady-state target cleavage rate [2, 6]"
UCCUGCUACAGCUUGCAUAGUAUUUAGUUA [g2:g25:cont:t1A],0.282 ± 0.019,0.0357 ± 0.011,–,–
UCCUGGUGCAGCUUGCAUAGUAUUUAGUUA,0.287 ± 0.017,0.0864 ± 0.018,–,–
UCCUGGAACAGCUUGCUUAGUAUUUAGAUA,–,0.00448 ± 0.0027,0.00191 ± 0.0029,–
UCCUCCUACAGCUUGCAUAGUAAUUAGAUA,–,0.00553 ± 0.0026,0.00145 ± 0.0041,–
UCCUGGUAGCAGCUUGCAUAGUAUUUAGUUA,0.286 ± 0.019,0.0746 ± 0.02,–,–
UCCUCCUACAGCUUGCAUAGUUUUUACUUA,–,–,0.00118 ± 0.0052,0.000641 ± 0.0091
UCCUGGUACAGCUUGCAAAGUAUUUACUUA,–,0.0016 ± 0.004,0.00161 ± 0.0037,–
UCCUGCAUCAGCUUGCAUAGUAUUUAGAAA,–,–,0.00131 ± 0.0039,0.000401 ± 0.013
UCCUGGAACAGCUUGCAUACUAUUUAGUAA,–,0.00398 ± 0.0022,0.00156 ± 0.0039,–
UCCUCGUACAGCUUGCAUAGUAUUUACAAA,–,0.00271 ± 0.0024,0.00128 ± 0.0045,–
UCCUGGAUGUGCUUCCAUAGUAUAUAGUUA,–,0.000309 ± 0.012,0.000401 ± 0.015,–
UCCUGGAACAGCUUGCAUAGUAUUUUCAUA,–,–,0.000762 ± 0.0087,0.00022 ± 0.04
UCCUGCUUCAGCUUGCAUAGUAUUUAGAAA,–,0.00434 ± 0.0021,0.00138 ± 0.0041,–
UCCUGCUACAGCUUGCAUAGUAUUUACAAA,–,–,0.00212 ± 0.0033,0.000102 ± 0.061
UCCUGGAUCAGCUUGCAUUGUAUUUAGAAA,–,0.00264 ± 0.0021,0.00151 ± 0.0039,–
UCCUGGAACAGCUUGCAUAGUAUUUUCUUA,–,0.00388 ± 0.0027,0.00123 ± 0.0052,–
UCCUCCUACAGCUUGCAUAGUAUAUAGAUA,–,–,0.00135 ± 0.0044,0.000554 ± 0.0096
UCCUCCUACAGCUUCGCAUAGUAUUUAGUUA,0.282 ± 0.015,0.121 ± 0.032,–,–
UCCUGGAACAGCUUGCAUAGUAUAAAGUUA,–,0.00389 ± 0.0023,0.00233 ± 0.0033,–
UCCUGGAUGUCGAAGCAUAGUAUUUUCUUA,–,0.000853 ± 0.0073,0.000553 ± 0.0097,–

# 4 neighbouring records out of the list so far:
Sequence,"pre-steady-state target cleavage rate [1, 3]","pre-steady-state target cleavage rate [2, 4]","pre-steady-state target cleavage rate [1, 5]","pre-steady-state target cleavage rate [2, 6]"
UCCUGGAACAGCUUGCUUAGUAUUUAGAUA,–,0.00448 ± 0.0027,0.00191 ± 0.0029,–
UCCUCCUACAGCUUGCAUAGUAAUUAGAUA,–,0.00553 ± 0.0026,0.00145 ± 0.0041,–
UCCUGGUAGCAGCUUGCAUAGUAUUUAGUUA,0.286 ± 0.019,0.0746 ± 0.02,–,–
UCCUCCUACAGCUUGCAUAGUUUUUACUUA,–,–,0.00118 ± 0.0052,0.000641 ± 0.0091

# Next part:

Sequence,"pre-steady-state target cleavage rate [1, 3]","pre-steady-state target cleavage rate [2, 4]","pre-steady-state target cleavage rate [1, 5]","pre-steady-state target cleavage rate [2, 6]"
UCCUGCUACAGCUUGCAUAGUAUUUUGUAA,–,0.00356 ± 0.0022,0.00176 ± 0.004,–
UCCUGGAUCAGCUUGCAUAGUAUUAAGUAA,–,0.00602 ± 0.0026,0.00253 ± 0.0031,–
UCCUGGAACAGCUUGGAUAGUAUUUAGAAA,–,0.00373 ± 0.0019,0.00193 ± 0.0029,–
UCCUCCUUGAGCUUGCAUAGUAUUUAGAAA,–,0.00549 ± 0.0018,0.00136 ± 0.0046,–
UCCUGGAAGUCCUUGCAUAGUAUUUAGUAA,–,0.00346 ± 0.0028,0.00214 ± 0.003,–
UCCUGGAUGAGCUUGCAUAGUAUUUAAUUA,–,0.00294 ± 0.0025,0.00253 ± 0.0031,–
UCCUGGAACAGCUAGCAUAGUAUUUACUUA,–,0.00241 ± 0.0026,0.00207 ± 0.0033,–
UCCUGGAUGUCGAACCAAGUAUUUAGUUA,0.000159 ± 0.02,0.000213 ± 0.022,–,–
UCCUGGAACAGCUUGCAUAGUAUUUAGAUUA,–,0.00539 ± 0.002,0.00209 ± 0.0049,–
UCCUGGAACCAGCUUGCAUAGUAUUUAGUUA,0.365 ± 0.032,0.0336 ± 0.0098,–,–
UCCUGGAUGUCGAUGCACUAGUAUUUAGUUA,–,0.000153 ± 0.023,0.00013 ± 0.024,–
UCCUGGAUCACCUUGCAUAGUAUUUAGAUA,–,0.00551 ± 0.005,0.00256 ± 0.0028,–
UCCUCCUACAGCUUGCAUAGUAUAUACUUA,–,0.00304 ± 0.0025,0.0015 ± 0.0038,–
UCCUGGAUGUCGAACGUUAGUAUUUAGUUA,< 0.0001,0.000112 ± 0.025,–,–
UCCUGGAUGUCGAACGUUAGUAUUUAGUUUA,0.000162 ± 0.023,0.000485 ± 0.011,–,–
UCCUGGAUCAGCUUGCAUUGAAUUUAGUUA,–,0.000504 ± 0.0063,0.00204 ± 0.0026,–
UCCUGGAUCAGGUUGCAUAGUAUUUAGAUA,–,0.00381 ± 0.0026,0.00239 ± 0.0034,–
UCCUGGAUGUGCUUGGAUAGAAUUUAGUUA,–,0.000304 ± 0.011,0.00199 ± 0.0039,–
UCCUGGAUGUCGAUGCAUACUAUAUAGUUA,–,0.000432 ± 0.013,0.000151 ± 0.043,–
UCCUGGUACAGCUUGCAUAGUUUUUUGUUA,–,0.00135 ± 0.0065,0.00158 ± 0.0057,–

Sequence,"pre-steady-state target cleavage rate [1, 3]","pre-steady-state target cleavage rate [2, 4]","pre-steady-state target cleavage rate [1, 5]","pre-steady-state target cleavage rate [2, 6]"
UCCUGGUACAGCUUGGAUAGUAUAUAGUUA,0.316 ± 0.065,–,–,0.00132 ± 0.0085
UCCUGGAUGAGCUUGCAUACAUUUUACAAA,–,–,0.000197 ± 0.031,0.000299 ± 0.026
UCCUGGUACAGCUUGCAUAGUAAUUAGUUA,0.317 ± 0.034,0.00654 ± 0.0025,–,–
UCCUGCUACACGUUGCAUAGUAUUUAGUUA,0.289 ± 0.026,0.0175 ± 0.0063,–,–
UCCUGGUACAGCUUGGAUACUAUUUAGUUA,–,0.000558 ± 0.014,0.00193 ± 0.0067,–
UCCUGCAACAGCUUGCAUAGUAAUUAGUUA,0.34 ± 0.025,0.00951 ± 0.0021,–,–
UCCUGGAUGUCGAACCAUUGUAUUAAGUUA,–,–,0.000255 ± 0.015,0.000249 ± 0.026
UCCUCCUACAGCAUGCAUAGUAUUUAGUUA,0.316 ± 0.021,0.0743 ± 0.019,–,–
UCCUCCUACAGCUUGCAUACUAUUUUGUUA,–,0.00468 ± 0.0034,0.00156 ± 0.0032,–
UCCUCCUACAGCUUGCAUAGUAUUUAGUCUA,–,–,0.00288 ± 0.0029,0.000558 ± 0.011
UCCUGCUACAGCUUGCAUAGUAAUUAGUAA,–,0.00441 ± 0.0018,0.00127 ± 0.0044,–
UCCUGGUACAGCUUGCAUUGUAUUUUGUUA,–,0.00266 ± 0.0026,0.0017 ± 0.0055,–
UCCUGCUAGAGCUUGCAUAGUUUUUAGUUA,–,0.00419 ± 0.0013,0.00223 ± 0.0028,–
UCCUGGAACUGCUUGCAUAGUAUUUACAAA,–,0.0018 ± 0.0024,0.00101 ± 0.007,–
UCCUCCUACAGCUAGCAUAGUAUUUAGAUA,–,0.00495 ± 0.0024,0.00203 ± 0.0031,–
UCCUGCUACAGCAAGCAUAGUAUUUAGUUA,0.325 ± 0.022,0.0176 ± 0.0059,–,–
UCCUGGUACAGGUUGCAUAGUAUUAAGUUA,0.326 ± 0.072,–,–,0.000497 ± 0.021
UCCUGGAUGUCGAACCAUAGUAUUAAGAUA,–,0.000158 ± 0.028,0.000137 ± 0.033,–
UCCUGGUACAGCAUGCAUAGUAUAUAGUUA,0.241 ± 0.038,0.00569 ± 0.0031,0.00583 ± 0.0028,–
UCCUGGAUCAGCUUGGAUAGUAUUUAGUAA,0.166 ± 0.019,0.00463 ± 0.0023,0.00324 ± 0.0026,–
